Experimental findings from the supplement of paper PMC10849652 are described below.

Sequences of proteins named here, by UniProt entry; tags and fusion partners are left off. A change or cut given only in a name is not applied to a line headed by its entry.
UniProt Q86YT6, whole entry, looked up: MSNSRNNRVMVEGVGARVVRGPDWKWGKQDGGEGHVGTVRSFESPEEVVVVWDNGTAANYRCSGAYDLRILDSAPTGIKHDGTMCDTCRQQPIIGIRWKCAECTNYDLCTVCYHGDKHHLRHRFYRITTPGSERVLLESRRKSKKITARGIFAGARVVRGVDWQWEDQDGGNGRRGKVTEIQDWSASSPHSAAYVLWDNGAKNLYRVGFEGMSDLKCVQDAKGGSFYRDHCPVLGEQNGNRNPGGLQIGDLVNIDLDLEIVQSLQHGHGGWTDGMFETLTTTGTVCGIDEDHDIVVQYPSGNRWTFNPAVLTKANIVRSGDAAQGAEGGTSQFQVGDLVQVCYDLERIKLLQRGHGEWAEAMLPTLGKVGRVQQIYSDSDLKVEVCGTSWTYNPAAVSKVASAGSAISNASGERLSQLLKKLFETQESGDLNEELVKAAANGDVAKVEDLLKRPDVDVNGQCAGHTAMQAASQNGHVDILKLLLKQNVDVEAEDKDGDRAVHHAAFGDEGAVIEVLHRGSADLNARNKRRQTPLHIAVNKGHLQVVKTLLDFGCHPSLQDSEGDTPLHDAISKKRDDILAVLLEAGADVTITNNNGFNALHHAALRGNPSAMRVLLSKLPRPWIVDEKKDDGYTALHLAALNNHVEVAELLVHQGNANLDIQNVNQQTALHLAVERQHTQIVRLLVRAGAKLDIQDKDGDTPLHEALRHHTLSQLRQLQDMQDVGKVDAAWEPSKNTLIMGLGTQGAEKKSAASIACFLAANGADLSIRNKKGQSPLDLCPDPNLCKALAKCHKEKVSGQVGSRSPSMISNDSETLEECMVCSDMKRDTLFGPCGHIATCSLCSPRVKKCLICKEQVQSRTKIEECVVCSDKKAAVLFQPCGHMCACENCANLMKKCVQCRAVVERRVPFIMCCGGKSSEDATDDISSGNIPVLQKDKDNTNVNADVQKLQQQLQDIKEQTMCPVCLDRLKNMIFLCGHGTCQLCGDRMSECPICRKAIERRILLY
UniProt Q9NRN9: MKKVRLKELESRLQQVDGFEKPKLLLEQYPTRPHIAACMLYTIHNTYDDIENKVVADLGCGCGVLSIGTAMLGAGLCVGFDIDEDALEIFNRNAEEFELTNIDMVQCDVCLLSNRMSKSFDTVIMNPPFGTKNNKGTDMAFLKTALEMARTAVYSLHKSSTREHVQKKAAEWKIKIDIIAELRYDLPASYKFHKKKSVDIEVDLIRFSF
UniProt Q06413, whole entry, looked up: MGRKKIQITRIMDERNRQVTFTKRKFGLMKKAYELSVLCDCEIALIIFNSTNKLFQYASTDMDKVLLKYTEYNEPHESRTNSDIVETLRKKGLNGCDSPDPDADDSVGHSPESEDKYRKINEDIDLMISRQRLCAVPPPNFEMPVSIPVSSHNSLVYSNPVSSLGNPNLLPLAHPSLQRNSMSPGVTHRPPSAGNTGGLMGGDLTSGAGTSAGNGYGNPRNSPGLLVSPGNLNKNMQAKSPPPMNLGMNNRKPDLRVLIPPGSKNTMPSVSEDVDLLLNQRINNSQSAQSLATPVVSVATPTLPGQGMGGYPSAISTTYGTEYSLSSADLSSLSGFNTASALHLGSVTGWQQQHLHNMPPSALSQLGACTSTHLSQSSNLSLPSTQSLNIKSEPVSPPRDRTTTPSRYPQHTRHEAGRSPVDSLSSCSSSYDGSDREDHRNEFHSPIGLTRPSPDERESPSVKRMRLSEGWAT
UniProt P25205: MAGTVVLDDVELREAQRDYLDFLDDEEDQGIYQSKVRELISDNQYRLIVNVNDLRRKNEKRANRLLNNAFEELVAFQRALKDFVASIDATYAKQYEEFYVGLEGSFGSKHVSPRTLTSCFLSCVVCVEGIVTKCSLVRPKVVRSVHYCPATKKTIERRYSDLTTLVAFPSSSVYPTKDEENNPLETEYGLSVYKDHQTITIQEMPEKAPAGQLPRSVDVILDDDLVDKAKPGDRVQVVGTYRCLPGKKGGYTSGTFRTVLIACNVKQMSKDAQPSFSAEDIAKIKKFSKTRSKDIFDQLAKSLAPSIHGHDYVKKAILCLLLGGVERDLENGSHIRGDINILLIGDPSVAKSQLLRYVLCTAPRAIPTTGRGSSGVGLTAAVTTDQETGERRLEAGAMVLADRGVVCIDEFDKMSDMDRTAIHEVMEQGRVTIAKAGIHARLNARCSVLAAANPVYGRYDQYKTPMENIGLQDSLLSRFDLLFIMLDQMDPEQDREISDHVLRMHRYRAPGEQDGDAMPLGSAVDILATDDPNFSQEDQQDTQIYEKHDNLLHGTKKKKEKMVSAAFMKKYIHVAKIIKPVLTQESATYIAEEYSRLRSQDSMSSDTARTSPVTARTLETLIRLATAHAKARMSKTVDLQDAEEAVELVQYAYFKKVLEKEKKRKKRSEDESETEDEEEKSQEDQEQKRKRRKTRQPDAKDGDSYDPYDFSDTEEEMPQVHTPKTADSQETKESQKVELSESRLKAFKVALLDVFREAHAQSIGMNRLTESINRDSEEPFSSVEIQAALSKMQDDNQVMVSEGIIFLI
UniProt Q9HCC0: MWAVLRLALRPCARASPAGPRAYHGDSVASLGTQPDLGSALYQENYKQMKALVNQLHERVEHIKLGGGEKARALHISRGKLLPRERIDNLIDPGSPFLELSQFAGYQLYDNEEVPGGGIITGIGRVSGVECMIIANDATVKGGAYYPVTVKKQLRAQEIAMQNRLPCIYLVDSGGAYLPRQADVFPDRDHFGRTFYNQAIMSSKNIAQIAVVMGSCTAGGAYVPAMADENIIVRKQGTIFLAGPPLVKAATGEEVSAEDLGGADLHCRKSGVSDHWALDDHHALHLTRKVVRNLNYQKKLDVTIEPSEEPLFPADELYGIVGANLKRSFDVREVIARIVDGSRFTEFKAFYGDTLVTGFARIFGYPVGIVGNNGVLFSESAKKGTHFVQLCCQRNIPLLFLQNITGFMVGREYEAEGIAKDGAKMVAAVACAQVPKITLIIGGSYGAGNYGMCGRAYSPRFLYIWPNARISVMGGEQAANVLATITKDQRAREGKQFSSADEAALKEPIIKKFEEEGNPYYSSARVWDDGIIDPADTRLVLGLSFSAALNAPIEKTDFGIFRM
UniProt Q9BUE0: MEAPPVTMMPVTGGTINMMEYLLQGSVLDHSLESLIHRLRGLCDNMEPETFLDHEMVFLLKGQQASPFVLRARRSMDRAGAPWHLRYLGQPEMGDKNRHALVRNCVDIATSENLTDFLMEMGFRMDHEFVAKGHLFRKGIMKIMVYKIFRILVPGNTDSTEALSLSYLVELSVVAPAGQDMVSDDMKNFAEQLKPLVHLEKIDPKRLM
UniProt O60244: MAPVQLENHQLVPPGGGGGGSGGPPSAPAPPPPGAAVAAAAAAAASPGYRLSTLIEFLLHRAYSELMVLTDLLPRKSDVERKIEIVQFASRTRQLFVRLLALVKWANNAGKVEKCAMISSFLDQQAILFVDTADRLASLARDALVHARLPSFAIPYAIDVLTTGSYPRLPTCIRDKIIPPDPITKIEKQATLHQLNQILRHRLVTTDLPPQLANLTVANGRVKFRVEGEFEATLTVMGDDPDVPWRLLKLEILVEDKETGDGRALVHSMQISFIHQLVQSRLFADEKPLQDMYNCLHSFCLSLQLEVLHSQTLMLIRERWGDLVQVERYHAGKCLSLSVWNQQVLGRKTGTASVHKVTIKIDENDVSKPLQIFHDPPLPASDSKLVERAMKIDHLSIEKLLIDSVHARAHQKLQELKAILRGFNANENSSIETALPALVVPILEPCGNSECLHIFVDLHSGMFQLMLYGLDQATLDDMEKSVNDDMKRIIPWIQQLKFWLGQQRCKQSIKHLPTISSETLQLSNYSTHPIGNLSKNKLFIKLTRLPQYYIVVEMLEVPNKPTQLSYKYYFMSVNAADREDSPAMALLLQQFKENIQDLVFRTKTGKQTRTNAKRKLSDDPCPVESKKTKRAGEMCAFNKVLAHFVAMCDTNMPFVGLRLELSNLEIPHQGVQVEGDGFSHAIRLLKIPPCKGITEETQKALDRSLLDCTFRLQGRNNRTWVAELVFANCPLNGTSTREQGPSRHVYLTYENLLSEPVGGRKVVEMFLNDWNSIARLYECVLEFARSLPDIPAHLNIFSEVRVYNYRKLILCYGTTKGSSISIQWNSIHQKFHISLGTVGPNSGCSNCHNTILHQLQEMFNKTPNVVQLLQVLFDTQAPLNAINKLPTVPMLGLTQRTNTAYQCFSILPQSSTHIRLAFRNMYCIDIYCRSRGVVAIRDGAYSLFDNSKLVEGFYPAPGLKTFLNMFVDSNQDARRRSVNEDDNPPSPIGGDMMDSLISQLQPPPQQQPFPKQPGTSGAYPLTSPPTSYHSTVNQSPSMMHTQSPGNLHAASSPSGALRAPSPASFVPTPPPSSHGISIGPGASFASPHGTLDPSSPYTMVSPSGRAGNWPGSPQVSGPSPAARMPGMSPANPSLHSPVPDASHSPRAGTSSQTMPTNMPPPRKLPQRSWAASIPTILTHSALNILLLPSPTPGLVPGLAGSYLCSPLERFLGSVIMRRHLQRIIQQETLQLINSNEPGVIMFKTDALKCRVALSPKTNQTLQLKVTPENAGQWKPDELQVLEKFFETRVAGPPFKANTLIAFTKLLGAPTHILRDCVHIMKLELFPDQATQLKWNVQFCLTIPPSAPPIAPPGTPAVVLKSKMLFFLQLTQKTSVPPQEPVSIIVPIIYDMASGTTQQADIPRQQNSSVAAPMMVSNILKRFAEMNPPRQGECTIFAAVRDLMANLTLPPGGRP
UniProt Q14728: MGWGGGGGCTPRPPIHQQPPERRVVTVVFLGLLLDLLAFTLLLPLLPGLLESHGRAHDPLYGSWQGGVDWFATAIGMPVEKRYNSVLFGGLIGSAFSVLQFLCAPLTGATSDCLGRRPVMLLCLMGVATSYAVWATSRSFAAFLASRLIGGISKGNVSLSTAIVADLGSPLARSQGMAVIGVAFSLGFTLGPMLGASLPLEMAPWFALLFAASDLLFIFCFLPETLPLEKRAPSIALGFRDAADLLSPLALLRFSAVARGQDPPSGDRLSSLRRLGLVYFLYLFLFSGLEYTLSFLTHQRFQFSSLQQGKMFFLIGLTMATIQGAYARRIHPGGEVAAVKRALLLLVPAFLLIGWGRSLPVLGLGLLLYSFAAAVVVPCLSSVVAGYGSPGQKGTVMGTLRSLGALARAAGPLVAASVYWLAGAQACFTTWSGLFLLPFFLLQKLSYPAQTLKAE
UniProt P50579: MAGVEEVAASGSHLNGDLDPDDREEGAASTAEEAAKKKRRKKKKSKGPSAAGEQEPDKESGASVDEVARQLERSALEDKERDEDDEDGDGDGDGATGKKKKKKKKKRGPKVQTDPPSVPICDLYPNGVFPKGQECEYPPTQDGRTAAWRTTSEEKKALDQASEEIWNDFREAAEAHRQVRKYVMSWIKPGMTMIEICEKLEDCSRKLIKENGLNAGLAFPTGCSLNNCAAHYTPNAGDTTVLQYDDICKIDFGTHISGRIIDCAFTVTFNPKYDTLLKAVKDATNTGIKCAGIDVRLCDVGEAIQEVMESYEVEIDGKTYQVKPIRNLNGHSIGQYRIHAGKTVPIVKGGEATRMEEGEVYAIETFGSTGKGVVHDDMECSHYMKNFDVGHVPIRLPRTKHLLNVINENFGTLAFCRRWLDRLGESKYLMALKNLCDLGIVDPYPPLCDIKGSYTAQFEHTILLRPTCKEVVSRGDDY
UniProt O95983: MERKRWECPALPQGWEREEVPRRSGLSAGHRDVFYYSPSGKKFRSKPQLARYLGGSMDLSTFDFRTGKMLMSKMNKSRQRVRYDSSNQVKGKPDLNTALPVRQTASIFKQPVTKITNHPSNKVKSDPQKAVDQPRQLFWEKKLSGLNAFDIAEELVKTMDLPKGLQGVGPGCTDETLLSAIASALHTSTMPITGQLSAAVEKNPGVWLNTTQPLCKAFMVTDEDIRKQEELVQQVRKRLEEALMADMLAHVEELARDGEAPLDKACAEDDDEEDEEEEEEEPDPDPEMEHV
UniProt Q14814: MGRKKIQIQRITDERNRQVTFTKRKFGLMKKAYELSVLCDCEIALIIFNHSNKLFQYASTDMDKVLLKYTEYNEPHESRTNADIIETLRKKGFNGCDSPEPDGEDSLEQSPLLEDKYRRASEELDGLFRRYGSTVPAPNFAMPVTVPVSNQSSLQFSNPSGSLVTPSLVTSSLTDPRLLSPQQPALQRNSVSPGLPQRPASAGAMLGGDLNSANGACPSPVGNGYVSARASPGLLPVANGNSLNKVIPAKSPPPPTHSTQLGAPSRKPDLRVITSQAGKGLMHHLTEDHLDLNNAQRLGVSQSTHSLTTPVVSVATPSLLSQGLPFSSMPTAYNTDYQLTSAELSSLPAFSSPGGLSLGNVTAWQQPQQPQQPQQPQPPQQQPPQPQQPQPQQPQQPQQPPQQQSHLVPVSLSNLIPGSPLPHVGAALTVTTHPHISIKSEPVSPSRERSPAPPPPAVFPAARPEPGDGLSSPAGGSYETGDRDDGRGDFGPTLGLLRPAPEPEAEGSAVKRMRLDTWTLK

The list shows a part of the results.

Compound in the test: C[C@H](C1=CC=C(C=C1)C(=O)NC2=C3C=CNC3=NC=C2)N
The test is described as follows: log2 fold change, soluble protein after heating vs DMSO (PISA); higher = thermal stabilisation; K562 cells, 10 uM, 30 min; active = over 0.2 and 3.5 SD of the protein, either way, in both replicates (recomputed). In a few lines:
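Soluble protein was quantified by TMTpro 16plex LC-MS/MS after channel sums were equalised. It was obtained as the supernatant after 21,000xg for 90 min from pooled aliquots of K562 cells (2×10^6 cells/mL, 10 μM compound, 30 min) heated for 3 min across 48°C-58°C and extracted in PBS with 0.5% NP-40 at 4°C. Thermal stability values are relative to control samples and come from duplicates. They are given as log2 fold changes.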
On to MIB1 (UniProt Q86YT6), for which the log2 fold change was inactive: 0.068.
For MCM2 (UniProt P49736), the log2 fold change is inactive: -0.072.
Turning to MESD (UniProt Q14696), the log2 fold change is inactive: -0.012.
In the case of MCRIP1 (UniProt I3L4Q0), the log2 fold change is inactive: -0.023.
Take MDN1 (UniProt Q9NU22): the log2 fold change was inactive: 0.002.
With MED23 (UniProt Q9ULK4) the figure was inactive: 0.049; with METTL7A (UniProt Q9H8H3), inactive: -0.102; with MCM5 (UniProt P33992), inactive: -0.071.
The value for METTL5 (UniProt Q9NRN9) was inactive: -0.061.
Regarding MECR (UniProt Q9BV79), the log2 fold change is inactive: -0.087.
On to METTL2B (UniProt Q6P1Q9), for which the log2 fold change is inactive: 0.09.
As to MBOAT1 (UniProt Q6ZNC8), the log2 fold change is inactive: -0.071.
The value for MEF2C isoform 5 (UniProt Q06413) was inactive: -0.011; that for MAT2B (UniProt Q9NZL9) was inactive: -0.012; that for METTL21A (UniProt Q8WXB1) was inactive: -0.019.
Turning to MERTK (UniProt Q12866), the log2 fold change is inactive: -0.067.
MCM3 isoform 2 (UniProt P25205): the log2 fold change was inactive: -0.094.
With MCCC2 (UniProt Q9HCC0) the figure was inactive: -0.053; with MED30 (UniProt Q96HR3), inactive: -0.032; with METTL6 (UniProt Q8TCB7), inactive: 0.001.
MED18 (UniProt Q9BUE0): the log2 fold change is inactive: -0.065.
With MFAP1 (UniProt P55081) the figure was inactive: -0.058.
With MCCC1 (UniProt Q96RQ3) the figure was inactive: -0.066; with MGAT4B isoform 3 (UniProt Q9UQ53), inactive: 0.093.
With MED14 (UniProt O60244) the figure was inactive: -0.023; with MFSD10 (UniProt Q14728), inactive: -0.004.
Consider METAP1 (UniProt P53582), for which the log2 fold change was inactive: -0.016.
The value for MGST3 (UniProt O14880) was inactive: -0.075; that for METAP2 (UniProt P50579) was inactive: 0.132; that for MCRIP2 (UniProt Q9BUT9) was inactive: -0.079.
As for MBNL1 (UniProt Q9NR56), the log2 fold change was inactive: 0.018.
For MEAF6 isoform 3 (UniProt Q9HAF1), the log2 fold change is inactive: 0.004.
The value for MFSD14B (UniProt Q5SR56) was inactive: -0.083; that for MBD3 (UniProt O95983) was inactive: 0.13.
With MED15 (UniProt Q96RN5), the log2 fold change is inactive: -0.012.
On to MED24 (UniProt O75448), for which the log2 fold change was inactive: 0.051.
Regarding MEF2D (UniProt Q14814), the log2 fold change is inactive: -0.003.
METTL25 (UniProt Q8N6Q8): the log2 fold change is inactive: 0.164.
As to MED10 (UniProt Q9BTT4), the log2 fold change was inactive: -0.096.
